Measurements reported in PubChem BioAssay AID652243 (Drosophila RNAi Screening Center, 2013).
Purpose: 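Fly regulators of androgen-dependent reporter output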 (primary screen). System: Drosophila S2R+ cells. Knock-down reagent: long dsRNA against Drosophila genes. Time to read-out: 72 h (48 h, then 24 h hormone). Challenge: synthetic androgen R1881 at 10 nM for 24 h. Read-out: 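Firefly light from an androgen-responsive reporter and Renilla control light per well, raw and unnormalised, for each of two replicates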. Direction: firefly reporter light: higher = more light from androgen-responsive reporter; Renilla control light: higher = more constitutive control signal (cell number, transfection). Call rule: 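Across duplicate plates, a knock-down whose log firefly/Renilla ratio shifted a set fold down or up from the GFP/LacZ control mean was a hit; the downward cut appears as both 1.5 and 3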. Meaning of the calls: active = hit: reporter lowered or raised; inactive = no hit.
The screen tested about 24,000 reagents; this is an unselected part of those with a known target gene and a result. Over the whole deposit, 246 (1%) are marked active. 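Plates not normalised; calls are printed but the firefly/Renilla ratio behind them is not deposited; fold cut for lowering reported inconsistently.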 The raw values are shown without normalisation. Not stated in the record: the amount of reagent.

gene | amplicon | firefly reporter light, replicate 1 | firefly reporter light, replicate 2 | Renilla control light, replicate 1 | Renilla control light, replicate 2 | activity call
CG16986 | DRSC08502 | 1.69e5 | 1.11e5 | 1.66e6 | 1.52e6 | inactive
CG4269 | DRSC04457 | 2.26e5 | 2.91e5 | 1.82e6 | 2.52e6 | inactive
CG12698 | DRSC19485 | 4.08e5 | 4.61e5 | 3.51e6 | 2.99e6 | inactive
CG12698 | DRSC27291 | 5.22e5 | 5.28e5 | 3.51e5 | 5.35e5 | inactive
CG13046 | DRSC09927 | 82350 | 1.37e5 | 1.14e6 | 1.63e6 | inactive
CG33493 | DRSC10642 | 2.88e5 | 2.86e5 | 3.18e6 | 2.59e6 | inactive
CG33493 | DRSC25546 | 7.92e5 | 8.27e5 | 1.28e6 | 1.17e6 | inactive
l(2)k09848 (lethal (2) k09848) | DRSC04894 | 8.77e5 | 6.71e5 | 2.49e6 | 1.57e6 | inactive
CG33463 | DRSC22915 | 4.64e5 | 9.99e5 | 1.15e6 | 2.19e6 | inactive
CG33463 | DRSC29923 | 5.16e5 | 5.77e5 | 1.42e6 | 1.49e6 | inactive
CG14131 | DRSC10135 | 3.31e5 | 1.66e5 | 2.28e6 | 1.10e6 | inactive
CG14131 | DRSC27727 | 2.24e5 | 3.38e5 | 6.29e5 | 6.77e5 | inactive
Drsl1 (Drosomycin-like 1) | DRSC22490 | 5.09e5 | 9.81e5 | 7.59e5 | 9.36e5 | inactive
Cog8 (Component of oligomeric golgi complex 8) | DRSC02961 | 1.01e6 | 9.52e5 | 1.15e6 | 1.32e6 | inactive
dve (defective proventriculus) | DRSC04680 | 1.45e5 | 1.44e5 | 1.45e6 | 1.33e6 | inactive
dve (defective proventriculus) | DRSC28692 | 4.42e5 | 4.32e5 | 1.60e6 | 1.77e6 | inactive
CG13245 | DRSC02243 | 7.83e5 | 8.70e5 | 1.48e6 | 1.95e6 | inactive
CG13376 | DRSC17901 | 2.60e5 | 3.33e5 | 5.66e6 | 3.56e6 | inactive
CG12594 | DRSC14532 | 1.57e5 | 1.57e5 | 2.09e6 | 2.25e6 | inactive
CG12594 | DRSC27229 | 2.61e5 | 2.99e5 | 6.05e5 | 6.39e5 | inactive
CG14854 | DRSC14978 | 1.42e5 | 1.62e5 | 2.24e6 | 2.79e6 | inactive
CG7365 | DRSC10824 | 36227 | 44993 | 4.26e5 | 2.30e5 | inactive
CG7365 | DRSC28680 | 4.05e5 | 3.99e5 | 1.49e6 | 1.55e6 | inactive
Sfxn2 (Sideroflexin 2) | DRSC10718 | 2.58e5 | 1.99e5 | 1.81e6 | 1.96e6 | inactive
CG1529 | DRSC20515 | 5.20e5 | 4.88e5 | 2.28e6 | 2.34e6 | inactive
CG1529 | DRSC24433 | 6.57e5 | 9.26e5 | 1.24e6 | 1.19e6 | inactive
CG2003 | DRSC15411 | 1.54e5 | 1.39e5 | 1.87e6 | 2.66e6 | inactive
Csas (CMP-sialic acid synthase) | DRSC22390 | 2.09e5 | 9.34e5 | 1.97e5 | 7.31e5 | inactive
E2f2 (E2F transcription factor 2) | DRSC03320 | 8.37e5 | 7.06e5 | 2.93e6 | 2.07e6 | inactive
Rrp40 (Ribosomal RNA processing 40) | DRSC00074 | 2.05e5 | 2.28e5 | 4.29e5 | 3.79e5 | inactive
Rchy1 (Ring finger and CHY zinc finger domain containing 1) | DRSC23118 | 6.59e5 | 7.84e5 | 8.00e5 | 1.14e6 | inactive
Rchy1 (Ring finger and CHY zinc finger domain containing 1) | DRSC26775 | 3.63e5 | 4.29e5 | 1.21e6 | 8.82e5 | inactive

5 consecutive reagents from above:
gene | amplicon | firefly reporter light, replicate 1 | firefly reporter light, replicate 2 | Renilla control light, replicate 1 | Renilla control light, replicate 2 | activity call
l(2)k09848 (lethal (2) k09848) | DRSC04894 | 8.77e5 | 6.71e5 | 2.49e6 | 1.57e6 | inactive
CG33463 | DRSC22915 | 4.64e5 | 9.99e5 | 1.15e6 | 2.19e6 | inactive
CG33463 | DRSC29923 | 5.16e5 | 5.77e5 | 1.42e6 | 1.49e6 | inactive
CG14131 | DRSC10135 | 3.31e5 | 1.66e5 | 2.28e6 | 1.10e6 | inactive
CG14131 | DRSC27727 | 2.24e5 | 3.38e5 | 6.29e5 | 6.77e5 | inactive

The results go on:
gene | amplicon | firefly reporter light, replicate 1 | firefly reporter light, replicate 2 | Renilla control light, replicate 1 | Renilla control light, replicate 2 | activity call
CG4991 | DRSC19928 | 1.50e5 | 1.25e5 | 6.30e5 | 6.53e5 | inactive
alpha4GT1 (alpha1,4-galactosyltransferase 1) | DRSC00488 | 1.07e6 | 1.21e6 | 1.50e6 | 1.36e6 | inactive
CG30403 | DRSC03889 | 5.24e5 | 5.47e5 | 2.72e6 | 4.11e6 | inactive
Arp3 (Actin-related protein 3) | DRSC09669 | 6.35e5 | 8.87e5 | 1.25e6 | 1.45e6 | inactive
Arp3 (Actin-related protein 3) | DRSC29666 | 8.35e5 | 1.10e6 | 1.42e6 | 1.42e6 | inactive
CG34278 | DRSC38818 | 8.18e5 | 6.83e5 | 2.83e6 | 1.72e6 | inactive
CG17974 | DRSC04299 | 2.92e5 | 3.17e5 | 2.55e6 | 2.41e6 | inactive
uif (uninflatable) | DRSC03427 | 2.32e5 | 1.75e5 | 2.40e6 | 2.03e6 | inactive
CG14442 | DRSC25040 | 8.63e5 | 1.11e6 | 1.06e6 | 9.51e5 | inactive
CG7768 | DRSC10914 | 7.52e5 | 6.14e5 | 1.45e6 | 1.62e6 | inactive
mgr (merry-go-round) | DRSC16099 | 1.62e5 | 1.15e5 | 1.95e6 | 2.09e6 | inactive
L2HGDH (L-2-hydroxyglutarate dehydrogenase) | DRSC02082 | 6.41e5 | 9.24e5 | 1.26e6 | 1.16e6 | inactive
L2HGDH (L-2-hydroxyglutarate dehydrogenase) | DRSC25864 | 3.20e5 | 4.22e5 | 1.07e6 | 9.89e5 | inactive
HmgZ (HMG protein Z) | DRSC03888 | 1.30e5 | 1.52e5 | 4.88e5 | 7.02e5 | inactive
HmgZ (HMG protein Z) | DRSC04620 | 4.12e5 | 6.59e5 | 1.07e6 | 2.53e6 | inactive
Rlb1 | DRSC16826 | 1.57e5 | 1.46e5 | 2.76e6 | 2.46e6 | inactive
Rlb1 | DRSC27846 | 1.18e6 | 6.19e5 | 3.67e6 | 1.10e6 | inactive
CR33283 (pseudo) | DRSC22918 | 6.62e5 | 1.09e6 | 1.47e6 | 1.60e6 | inactive
CG32588 | DRSC22285 | 8.32e5 | 7.05e5 | 2.13e6 | 2.02e6 | inactive
Frl (Formin-like) | DRSC09300 | 2.59e5 | 2.04e5 | 7.84e5 | 7.48e5 | inactive
Frl (Formin-like) | DRSC10027 | 2.00e5 | 1.75e5 | 2.04e6 | 1.80e6 | inactive
Frl (Formin-like) | DRSC10716 | 2.46e5 | 2.35e5 | 1.41e6 | 1.30e6 | inactive
Frl (Formin-like) | DRSC28783 | 3.99e5 | 4.00e5 | 1.42e6 | 1.39e6 | inactive
Jon99Fi (Jonah 99Fi) | DRSC26496 | 2.96e5 | 3.17e5 | 5.86e5 | 6.51e5 | inactive
Gr47a (Gustatory receptor 47a) | DRSC06221 | 3.08e5 | 2.09e5 | 1.97e6 | 1.69e6 | inactive
CG30065 | DRSC05420 | 1.48e5 | 2.02e5 | 4.57e5 | 2.68e5 | inactive
